Source: article PMC4072592
Results are given in words; binding and its absence hold for the method and conditions named. Binding seen in cells or lysates may run through a third protein. Some entries that bind do so weakly or less than the wild type. Each block holds one binder with its values, some of them ahead of it.

Sequences of proteins named here, by UniProt entry; tags and fusion partners are left off.
UniProt P82804: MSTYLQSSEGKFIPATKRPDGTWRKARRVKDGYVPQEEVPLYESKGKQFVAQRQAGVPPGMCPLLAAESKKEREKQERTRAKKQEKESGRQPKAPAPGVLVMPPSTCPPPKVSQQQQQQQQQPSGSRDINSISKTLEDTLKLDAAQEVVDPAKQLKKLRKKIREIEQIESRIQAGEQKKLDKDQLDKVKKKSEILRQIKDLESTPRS

What was measured:
[1] = target: Drosophila PYM (DmPYM), endogenous (Drosophila (endogenous in fly ovaries)) (UniProt P82804); assay: co-IP; anti-PYM antibody (anti-HA as unrelated antibody) on cytoplasmic extract of wild-type ovaries, 4°C, with or without RNase; washes with 300 mM KCl, 0.2% NP-40; western blot
[2] = target: GFP-Mago (transgene, ovaries) (Drosophila), P49028; assay: co-IP; GFP-Trap beads on cytoplasmic extracts of osk^A87/+ ovaries co-expressing GFP-Mago and a FLAG-tagged PYM construct; washes with 600 mM KCl; western blot of 20% of the beads; conditions: remark: other sources report otherwise

binding [1]: no binding
B1: CBP20, endogenous in ovaries (protein, UniProt Q9V3L6 1-154)
chain: MFASVELSSYRDQHFKGSRSEQERSLRDSCTLYVGNLSFYTTEEQIHELFSRCGDVRVIVMGLDKYKKTPCGFCFVEYYVRSEAEAAMRFVNGTRLDDRLIRVDWDAGFVEGRQYGRGKTGGQVRDEYRTDYDAGRGGYGKLLSQKIAPNTDNR

binding [2]: binds
B2: eIF4AIII, endogenous in ovaries, Q9VHS8 1-399 (protein)
chain: MARKNAQAEDLSNVEFETSEDVEVIPTFNAMNLKEELLRGIYAYGFEKPSAIQQRSITPIVKGRDVIAQAQSGTGKTATFSISILQSLDTTLRETQVLCLSPTRELAVQIQKVILALGDMMNVQCHVCIGGTNLGEDIRKLDYGQHIVSGTPGRVFDMIKRRVLRTRAIKMLVLDEADEMLNKGFKEQIYDVYRYLPPATQVVLISATLPHEILEMTSKFMTDPIRILVKRDELTLEGIKQFFVAVEREEWKFDTLCDLYDTLTITQAVIFCNTKRKVDWLTEKMREANFTVSSMHGDMPQKERDEIMKEFRAGQSRVLITTDVWARGIDVQQVSLVINYDLPNNRELYIHRIGRSGRFGRKGVAINFVKSDDIRILRDIEQYYSTQIDEMPMNVADLI
